# Hit rate of the full screen: of about 400,000 compounds, about 13,000 (3.2%) were called active. Inconclusive means that the source gave no clear call. Such entries were picked first, then a sample of the others. Calls follow the shape of the dose curve; as a rule, active = well fitted cell-killing curve with a large enough effect; inconclusive = small, poorly fitted or top-dose-only effect, or effect the other way; inactive = flat fitted curve, though single readings scatter. Potencies beside an inconclusive call are fits to weak or partial responses and may not hold up.
# Experiment: qHTS assay for MDR1-selective chemotherapeutics: Primary screen using the drug-selected MDR subline cells KB-V1; also: nearly all actives have a fitted effect of over 60% in size
# Details: KB-V1 MDR cells viability, CellTiter-Glo, 72 h; series mostly up to 46.1 µM
# How it was run: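 KB-V1 cells (P-gp-expressing MDR subline of KB-3-1) in phenol-red-free DMEM with 10% FBS were exposed to library compounds over a concentration series for 72 h at 37 degrees C. Viability read by CellTiter-Glo luminescence; concentration-effect curves fitted after normalization.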
# Potency is read from the fitted curve at half-maximal effect.
row,Compound,Potency
1,COc1cccc(CC(=O)Nc2cc(S(=O)(=O)N3CCCCC3)ccc2C)c1,"inconclusive: 23.1 µM [cytotoxic, single point]"
2,C=CCNc1ncnc2ccccc12,"inconclusive: 29.1 µM [cytotoxic, single point]"
3,COc1ccccc1N1CCN(C(=O)c2cc(-c3ccc4c(c3)OCO4)on2)CC1,active: 16.4 µM
4,COc1ccc(S(=O)(=O)c2cnc3ccc(Cl)cc3c2N2CCCCC2C)cc1 (stereo not drawn),"inconclusive: 29.1 µM [cytotoxic, single point]"
5,FC(F)(F)c1cc(Cl)c2nc(-c3ccco3)c(Cc3ccccc3C(F)(F)F)n2c1,inactive
6,Cc1ccc(C(=O)NC(=S)NCc2ccccc2)cc1Br,inactive
7,CC(=O)N(Cc1ccccc1)C(CC(=O)NCc1ccccc1)C(=O)O (stereo not drawn),inactive
8,COc1ccc(-c2cc(C(F)(F)F)nc(SCCC(=O)N3CCCC3)n2)cc1,inactive
9,COC(=O)CCCC1=CC2=CC(=O)C(C)(OC(=O)c3cccs3)C(=O)C2=CN1CC1CC1 (stereo not drawn),"inconclusive: 6.51 µM [rising, partial curve]"
10,O=C1c2ccccc2NC(c2cnc3ccccc3n2)N1O (stereo not drawn),"inconclusive: 18.4 µM [cytotoxic, single point]"
11,COc1cc(S(=O)(=O)N2CCN(Cc3cccs3)CC2)ccc1NC(C)=O,"inconclusive: 23.1 µM [cytotoxic, single point]"
12,CC(c1nc2ccccc2n1Cc1ccccc1)N1CCCCC1 (stereo not drawn),inactive
13,Cn1nnc2cc(C(=O)N3CCN(c4ccccn4)CC3)ccc21,"inconclusive: 25.9 µM [cytotoxic, partial curve, poor fit]"
14,O=C(NCc1ccco1)C(c1ccncc1)N(CCC1=CCCCC1)C(=O)Cn1nnc2ccccc21 (stereo not drawn),"inconclusive: 13 µM [cytotoxic, single point]"
15,COc1ccc(-n2nc(C(=O)NCC(=O)NCCC3=CCCCC3)c3ccccc3c2=O)c(OC)c1,"inconclusive: 8.2 µM [cytotoxic, partial curve]"
16,c1nc(NCCCN2CCCCC2)c2cc(-c3ccc4c(c3)OCO4)ccc2n1,inactive
17,Cc1ccc(/C(N)=N/OC(=O)CCC2CCCC2)cc1,"inconclusive: 18.4 µM [rising, partial curve, poor fit]"
18,CC12CC3CC(C)(C1)CC(C(=O)NC(=S)N1CCCCC1)(C3)C2,inactive
19,COc1ccc(C(=O)N(Cc2ccco2)Cc2cccs2)c(OC)c1,inactive
20,COc1ccc2c(C)c(CC(=O)N3CCN(C(=O)C4COc5ccccc5O4)CC3)c(=O)oc2c1C (stereo not drawn),inactive
21,COc1cc(/C=C/C(=O)OCC(=O)N2CCc3ccccc3C2)ccc1O,"inconclusive: 18.4 µM [rising, partial curve]"
22,CC(C)Sc1nnc(SCC(=O)NCCCN2CCCC2=O)s1,"inconclusive: 29.1 µM [cytotoxic, single point]"
23,COc1ccccc1OCCNC(=O)c1ccc(NC(=O)CC2SC(N3CCCC3)=NC2=O)cc1 (stereo not drawn),"inconclusive: 20.6 µM [cytotoxic, partial curve]"

row,Compound,Potency
1,CC(=O)c1ccc(NC(=O)c2ccc3c(=O)n4c(nc3c2)CCCCC4)cc1,"inconclusive: 23.1 µM [cytotoxic, partial curve, poor fit]"
2,Cc1nc(N2CCN(C(=O)c3ccco3)CC2)c2c3c(sc2n1)CC(C)CC3 (stereo not drawn),active: 8.2 µM
3,CCOc1ccc(C(=O)Nc2ccc(NC(=O)c3cccs3)cc2)cc1[N+](=O)[O-],inactive
4,Cc1ccc(C)c(N2CCN(C(=O)C34CC5CC(C3)CC(n3nnc(C)n3)(C5)C4)CC2)c1,"inconclusive: 18.4 µM [cytotoxic, single point]"
5,CCOC(=O)C1CCCN(C(=O)c2ccc(-c3ccc([N+](=O)[O-])cc3)o2)C1 (stereo not drawn),"inconclusive: 16.4 µM [cytotoxic, partial curve, poor fit]"
6,Cc1c(/C=N\NC(=O)C2COc3ccccc3O2)c2ccccc2n1C (stereo not drawn),"inconclusive: 1.16 µM [cytotoxic, full curve, poor fit]"
7,CCC(=O)Nc1ccc(SC#N)cc1C,"inconclusive: 23.1 µM [cytotoxic, partial curve, poor fit]"
8,COc1cc(CC(=O)OCC(=O)NCC(C)C)cc(OC)c1OC,"inconclusive: 25.9 µM [rising, partial curve]"
9,O=C(CN1C(=O)CSc2ccc(S(=O)(=O)N3CCOCC3)cc21)N1CCCCC1,"inconclusive: 4.11 µM [cytotoxic, full curve, poor fit]"
10,Cc1ccc(C)c(N2CCN(C(C(=O)NC3CCCC3)c3ccco3)CC2)c1 (stereo not drawn),"inconclusive: 5.8 µM [cytotoxic, partial curve]"
11,CC(C)=CCc1cc(-c2oc3cc(O)cc(O)c3c(=O)c2O)ccc1O,inactive
12,CCCCN(C)CCCNC(=O)Cn1ncc2c3ccccc3n(Cc3ccccc3)c2c1=O,inactive
13,CCOC(=O)c1nn(-c2ccc(Cl)cc2)c2nnc(Cc3ccc(C)cc3)c(=O)n12,"inconclusive: 20.6 µM [cytotoxic, partial curve, poor fit]"
14,COc1ccc(Cn2cnc3c(N)c(C)c(C)cc32)cc1,"inconclusive: 29.1 µM [cytotoxic, single point]"
15,Cc1ccc2oc(C(=O)Nc3cccc(Cl)c3)cc(=O)c2c1,inactive
16,COc1ccc([N+](=O)[O-])cc1NC(=O)C(C)N(C)Cc1cccc(OC)c1OC (stereo not drawn),active: 8.2 µM
17,O=C(c1ccc(CN2CCOCC2)cc1)N1CCC(Cc2ccccc2)CC1,active: 20.6 µM
18,Cn1c(=O)cc(OCCCC(=O)NC2CCCC2)c2ccccc21,active: 14.6 µM
19,O=C(O)CC(c1ccccc1)n1cccc1 (stereo not drawn),"inconclusive: 13 µM [rising, partial curve, poor fit]"
20,CCc1ccccc1NC(=S)NCC1CCN(c2ccc(OC)cc2)C1 (stereo not drawn),active: 20.6 µM
21,CC(C)(C)c1nc(C(C)(C)C)c(Br)c(=O)[nH]1,"inconclusive: 5.8 µM [cytotoxic, partial curve]"
22,O=C1CC(c2cccc([N+](=O)[O-])c2)c2cc3c(cc2N1)CCC3 (stereo not drawn),"inconclusive: 29.1 µM [cytotoxic, single point]"
23,O=C(Oc1c(Br)cc(Br)c2cccnc12)N1CCCCC1,inactive

row,Compound,Potency
1,O=C(NCCc1ccccc1)c1nc(-c2ccc(Cl)cc2)n2c1CCCCC2,inactive
2,COC(=O)C(C)Oc1ccc(Cc2ncc(C(F)(F)F)cc2Cl)cc1 (stereo not drawn),"inconclusive: 29.1 µM [rising, single point]"
3,C=CCNc1cnn(-c2ccccc2)c(=O)c1Cl,"inconclusive: 29.1 µM [cytotoxic, single point]"
4,CC(C)C[C@H]1CN(CCCC[C@@H]2CNC(=O)C(=O)N2CC2CCCCC2)C(=O)C(=O)N1Cc1ccccc1,"inconclusive: 29.1 µM [rising, single point]"
5,O=C(NCc1ccc2c(c1)CCO2)Nc1cccc(C(F)(F)F)c1,"inconclusive: 29.1 µM [cytotoxic, single point]"
6,O=C(CNC(=S)N(Cc1ccccc1)Cc1ccccc1F)NCc1ccc(Cl)cc1,"inconclusive: 10.3 µM [cytotoxic, partial curve]"
7,COc1ccccc1Cn1c(=S)[nH]c2ccc(Br)cc2c1=O,inactive
8,CCOc1ccc(S(=O)(=O)N(CC(=O)NCc2cccnc2)c2ccc(F)cc2)cc1,"inconclusive: 9.2 µM [cytotoxic, partial curve, poor fit]"
9,CCOC(=O)C1CCN(C(=O)C(C)Oc2ccc(C(=O)c3ccccc3)cc2)CC1 (stereo not drawn),"inconclusive: 20.6 µM [cytotoxic, single point]"
10,CN(CC(=O)Nc1cccc(F)c1)C(=O)CCCN1C(=O)c2cccc3cccc(c23)C1=O,"inconclusive: 5.8 µM [cytotoxic, partial curve]"
11,O=C(c1ccccc1OCc1ccccc1Br)N1CCN(c2ncccn2)CC1,active: 6.51 µM
12,Cc1ccc(C2Nc3ccccc3-c3nc4ccccc4n32)o1 (stereo not drawn),"inconclusive: 0.231 µM [rising, full curve, poor fit]"
13,CC(C)(C)OC(=O)N1CCC[C@H]1c1nnc(SCc2cccc(Cl)c2)o1,"inconclusive: 9.2 µM [cytotoxic, partial curve]"
14,COc1ccc(C(C(=O)NCc2ccccc2)n2c(=O)c(-c3cc4ccccc4[nH]3)nc3ccccc32)cc1 (stereo not drawn),inactive
15,COc1ccc(CNC(=O)CNC(=O)c2sc3ccccc3c2Cl)cc1OC,"inconclusive: 6.51 µM [cytotoxic, full curve, poor fit]"
16,COC(=O)[C@]12CCCCC=C1N(Cc1ccc3c(c1)OCO3)C(=O)[C@H](CC(=O)N1CCCCC1)C2,"inconclusive: 1.84 µM [cytotoxic, partial curve, poor fit]"
17,Cc1cc(C(=O)C(C)Sc2cccc[n+]2[O-])c(C)n1-c1ccc(Cl)cc1 (stereo not drawn),active: 20.6 µM
18,O=C(c1cnn(-c2ccc(F)cc2)c1-n1cccc1)N1CCN(c2ccc(F)cc2)CC1,active: 23.1 µM
19,Cc1sc(NC(=O)c2cc(-c3ccccc3)nc3ccccc23)c(C(N)=O)c1C,"inconclusive: 1.84 µM [cytotoxic, full curve, poor fit]"
20,C=CCC1(C#N)C(SC)=NC2=C(C(=O)CC(C)(C)C2)C1c1ccc(Br)cc1 (stereo not drawn),"inconclusive: 18.4 µM [cytotoxic, single point]"
21,CCCc1cc(=O)[nH]c2nnc(SCC(=O)NC3CCCC3)n12,"inconclusive: 25.9 µM [rising, single point]"
22,CCOC(=O)C1C(=O)CC(C)(O)C(C(=O)OCC)C1c1cccc(OC(F)(F)C(F)F)c1 (stereo not drawn),"inconclusive: 29.1 µM [cytotoxic, single point]"

# Taken from above.
# Entry for Cc1ccc(C2Nc3ccccc3-c3nc4ccccc4n32)o1 (stereo not drawn) under Potency: inconclusive: 0.231 µM [rising, full curve, poor fit]
# Entry for Cc1sc(NC(=O)c2cc(-c3ccccc3)nc3ccccc23)c(C(N)=O)c1C under Potency: inconclusive: 1.84 µM [cytotoxic, full curve, poor fit]
# Entry for O=C(CNC(=S)N(Cc1ccccc1)Cc1ccccc1F)NCc1ccc(Cl)cc1 under Potency: inconclusive: 10.3 µM [cytotoxic, partial curve]
# Entry for COc1ccccc1Cn1c(=S)[nH]c2ccc(Br)cc2c1=O under Potency: inactive

# Reference: PubChem BioAssay AID1347076 (National Center for Advancing Translational Sciences (NCATS), 2019)
